Like-named read-outs stand apart in the source and are kept apart here. At least one compound was matched to its structure with a doubt left.
Experiments:
[1] = system: AML samples; assay: Beat AML ex vivo venetoclax sensitivity, proliferation assay on AML patient samples (AUC and IC50); assay type: cell-based, human; details: p=3×10^−8
Method: Venetoclax sensitivity in BeatAML: The BeatAML dataset a/so included ex vivo sensitivity analysis for a panel of 121 inhibitors, including venetoclax, in a proliferation assay on 248 of the AML samples measured by area under the curve (AUC) and IC50. Only some of the patient samples were queried for each inhibitor. Of the samples with at least 40% blasts, 90 were tested for venetoclax ex vivo sensitivity. To define the best possible association of gene expression with venetoclax AUC, we performed a logistic regression model with lasso regularization to predict venetoclax AUC from the expression of all expressed genes using the expression matrix quantile normalized with the TCGA dataset. […]
In the methods, RARA gene expression in non-APL AML was evaluated in the TCGA and Beat AML RNA-seq datasets. […] The MES was then applied to the RNA-seq datasets from Beat AML and AML blasts from ND unfit AML patients in the ongoing tamibarotene-plus-azacitidine trial (NCT02807558), in which RARA-positive patients were determined by an RT-qPCR-based biomarker clinical trial assay (CTA). The MES, RARA expression, and venetoclax resistance-associated features were compared using Spearman's rho correlation; the association of the MES with the RARA biomarker and with IWG clinical responses in tamibarotene plus Aza treated patients was evaluated.

[2] = system: AML cells; details: cited from earlier work

Q: For `CC1(C)CCC(CN2CCN(c3ccc(C(=O)NS(=O)(=O)c4ccc(NCC5CCOCC5)c([N+](=O)[O-])c4)c(Oc4cnc5[nH]ccc5c4)c3)CC2)=C(c2ccc(Cl)cc2)C1` [venetoclax], which “ex vivo sensitivity, RARA-positive vs RARA-negative samples” value [1] is on record?
A: Its value is “much lower”.

Q: And the IC50 ([2]; resistant AML cells)?
A: Its IC50 is ~1000 nM.

Q: What about the IC50 ([2]; sensitive AML cells) of the same compound?
A: The IC50 was 20 to 60 nM.

— patent US20230285339A1, “THERAPIES FOR TREATING AML AND USES OF RARA AGONISTS, HYPOMETHYLATING AGENTS, AND BCL-2 INHIBITORS” (Syros Pharmaceuticals, Inc., priority 2020, published 2023)
